From patent US20250011362 (published 2025) come the findings set out here.

A short description of this series: general procedure: Fmoc solid-phase peptide synthesis; 2-chlorotrityl chloride resin; HATU/DIPEA; DIC/OxymaPure; HBTU/DIPEA (conjugations); carbonyldiimidazole/DIPEA. As to conditions: whole synthesis.

As to “H-D-Phe-D-Phe-wCap-Lys-CO-Glu (OtBu)-OtBu”, the crude yield was 80%.
